Data: patent US20080260757A1
No constants are given. Whether binding was seen depends on the method and setting. Some entries that bind do so weakly or less than the wild type.

The chains behind the UniProt entries cited, without tags or fusion partners. Residues count along the entry.
UniProt P02768, residues 25-609: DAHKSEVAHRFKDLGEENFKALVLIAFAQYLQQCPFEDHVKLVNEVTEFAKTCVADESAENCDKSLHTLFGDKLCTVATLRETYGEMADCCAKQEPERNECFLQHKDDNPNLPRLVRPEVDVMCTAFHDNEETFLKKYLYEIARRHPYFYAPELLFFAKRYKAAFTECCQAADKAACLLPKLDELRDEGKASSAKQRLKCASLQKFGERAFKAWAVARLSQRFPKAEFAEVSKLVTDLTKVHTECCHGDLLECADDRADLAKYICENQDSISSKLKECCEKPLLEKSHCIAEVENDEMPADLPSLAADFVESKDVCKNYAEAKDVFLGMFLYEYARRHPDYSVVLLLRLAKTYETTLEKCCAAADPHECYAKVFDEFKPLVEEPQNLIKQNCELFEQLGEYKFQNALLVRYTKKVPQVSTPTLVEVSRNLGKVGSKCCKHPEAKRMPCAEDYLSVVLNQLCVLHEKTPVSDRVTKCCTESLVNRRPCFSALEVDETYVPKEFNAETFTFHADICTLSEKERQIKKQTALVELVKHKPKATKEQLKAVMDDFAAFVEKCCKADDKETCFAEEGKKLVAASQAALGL

Biological target: human serum albumin (human) (UniProt P02768)
Test: sandwich ELISA on coated HSA, detection with anti-saporin antibody

B1: DOM7h-8/saporin non-covalent conjugate (protein)
VL: DIQMTQSPSSLSASVGDRVTITCRASQSISSYLNWYQQKPGKAPKLLIYRNSPLQSGVPSRFSGSGSGTDFTLTISSLQPEDFATYYCQQTYRVPPTFGQGTKVEIKC
In the case of B1, the binding is reported as “binds”.
